Data as given in PubChem BioAssay AID1259308 (NCATS, 2017)

- Aim: 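Knock-downs that increase output of a recombinant reporter protein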 (primary screen)
- System: human HEK293 embryonic kidney cells stably expressing firefly luciferase (HEK-CMV-Luc2-Hygro)
- Reagent: single siRNA against human genes, 0.8 pmol siRNA per well
- Duration: 72 h
- Measurement: 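Luciferase light (ONE-Glo) measured on one replicate plate set and viability (CellTiter-Glo) on the other, scaled to a negative control siRNA, with robust z-scores and luciferase per cell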
- Reading the numbers: total luciferase, z-score and total luciferase, % of control: higher = more reporter protein produced; luciferase per cell, z-score: higher = more reporter output per viable cell
- Call rule: 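Active when the median/MAD z-score for overall luciferase is greater than 3; a gene was taken forward for validation with new siRNAs if at least two of its three siRNAs passed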
- Meaning of the calls: active = raised luciferase; inactive = no rise
Here is an unselected part of about 59,000 reagents. Of all reagents, about 1,510 (2.6%) were called active. 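Calls use total luciferase alone and ignore viability, so some active siRNAs may act by altering cell number.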 Unmarked entries are inactive. Reagents against one gene are numbered here. Not all columns of the deposit are shown.

target | reagent no. | total luciferase, z-score | total luciferase, % of control | luciferase per cell, z-score
F8 | 1 | 0.459 | 91 | 0.171
F8 | 2 | 2.67 | 135 | 1.18
F8 | 3 | -0.483 | 72.3 | -0.933
KLK6 | 1 | -0.738 | 67.2 | -1.26
KLK6 | 2 | -0.32 | 75.5 | -0.412
KLK6 | 3 | 2.73 | 136 | 1.81
CHMP1B | 1 | 0.994 | 102 | 0.766
CHMP1B | 2 | -0.226 | 77.4 | 2.18
CHMP1B | 3 | 0.199 | 85.8 | 0.246
CHD7 | 1 | 0.219 | 86.2 | 0.542
CHD7 | 2 | 0.818 | 98.1 | -0.184
CHD7 | 3 | 0.0812 | 83.5 | -0.0641
HCN4 | 1 | -0.137 | 79.2 | 0.572
HCN4 | 2 | -0.351 | 74.9 | -0.615
HCN4 | 3 | -0.694 | 68.1 | -0.233
SH2B2 | 1 | 0.418 | 90.2 | -0.073
SH2B2 | 2 | -1.45 | 53.1 | -2.09
SH2B2 | 3 | -0.227 | 77.4 | -0.587
CDR1 | 1 | 0.757 | 96.9 | 1.39
CDR1 | 2 | -0.172 | 78.5 | 0.782
CDR1 | 3 | 0.411 | 90.1 | 0.785
TEX55 | 1 | 0.678 | 95.4 | 0.564
TEX55 | 2 | 1.35 | 109 | 0.605
TEX55 | 3 | -0.0862 | 80.2 | 0.25
NTN4 | 1 | -1.63 | 49.5 | -1.23
NTN4 | 2 | 0.576 | 93.3 | 1.13
NTN4 | 3 | 1.93 | 120 | 2.05
OGFOD1 | 1 | -0.171 | 78.5 | -0.442
OGFOD1 | 2 | -1.27 | 56.6 | 0.009
OGFOD1 | 3 | 1.65 | 115 | 2.2
TMCC1 | 1 | -0.0887 | 80.1 | -0.402
TMCC1 | 2 | -0.732 | 67.3 | 0.13
TMCC1 | 3 | 0.821 | 98.2 | 1.05
TNXB | 1 | -0.43 | 73.3 | -0.339
TNXB | 2 | 0.453 | 90.9 | -0.367
TNXB | 3 | 3.25 (active) | 146 | 1.38
RASA4 | 1 | -0.11 | 79.7 | -0.579
RASA4 | 2 | -0.0336 | 81.2 | -0.163
RASA4 | 3 | -1.33 | 55.5 | 0.2
TMEM50A | 1 | -2.84 | 25.3 | -4.5
TMEM50A | 2 | 0.381 | 89.5 | 0.318
TMEM50A | 3 | -0.00728 | 81.7 | -0.479
TACR1 | 1 | -0.659 | 68.8 | -0.163
TACR1 | 2 | -2.17 | 38.8 | -0.864
TACR1 | 3 | -0.948 | 63 | -0.77
TAC1 | 1 | -1.23 | 57.4 | -1.67
TAC1 | 2 | 3.73 (active) | 156 | 2.67
TAC1 | 3 | 0.293 | 87.7 | -0.466
SLC2A8 | 1 | -0.204 | 77.8 | -0.203
SLC2A8 | 2 | 1.16 | 105 | 0.744
SLC2A8 | 3 | -1.69 | 48.2 | -1.82
HERC5 | 1 | -0.781 | 66.4 | -1.02
HERC5 | 2 | 0.206 | 86 | 0.747
HERC5 | 3 | -0.516 | 71.6 | -0.64
PLXNC1 | 1 | -0.611 | 69.7 | -0.832
PLXNC1 | 2 | -0.111 | 79.7 | -0.616
PLXNC1 | 3 | 0.306 | 88 | 0.0228

Copied from the list.
For “total luciferase, % of control”, PLXNC1 #2 is entered as 79.7
Entry of TAC1 #2 in “total luciferase, z-score”: 3.73 (active)
Result for CHD7 #1 in “total luciferase, % of control”: 86.2
For “total luciferase, % of control”, SLC2A8 #1 shows 77.8
TEX55 #2, total luciferase, z-score → 1.35
Under “luciferase per cell, z-score”, HCN4 #1 shows 0.572
